{"source": "patent EP0189002B1", "about": "“Treatment of gastrointestinal disorders using 5-HT3 antagonists” (SANDOZ AG, priority 1984, dated 1986)", "test_system": "muscle strips from different parts of the guinea pig stomach", "experiment": "Test A: field stimulation-induced contractions in guinea pig stomach muscle strips", "description": "The compounds of the invention facilitate field stimulation-induced contractions in muscle strips from different parts of the guinea pig stomach and are therefore indicated to increase decreased peristaltic movements in the stomach and to enhance gastric emptying in vivo. The test is effected as follows:-Male Dunkin-Hartley guinea pigs, 340-450 g, which had been starved overnight, were killed by cervical transsection and the stomach removed and placed in Krebs-Henseleit solution (NaCI 118.0, KCI 4.75, KH2P04 1.2, MgS04 1.2, CaC12 2.5, glucose 10 mM). Segments were taken from the body (approximately 20 mm long, 3-4 mm wide) with dissection in a plane suitable to investigate tension changes in the circular muscle layer. Tissues were placed in 30 ml organ baths containing oxygenated (95% 02, 5% C02) Krebs-Henseleit solution at 37 C. One gram tension was applied to the tissues which were allowed to equilibrate for 45-60 min. before electrical stimulation. […] Responses were measured as changes in gram tension, but to allow easier comparison between treatments, data were converted to show changes as percentage values. The significance of differences between control responses and those obtained in the presence of interacting drugs was assessed using the Mann-Whitney U test.", "note": "For at least one compound, name, drawing or mass did not settle the structure."}
{"smiles": "CN1[C@@H]2CC[C@H]1C[C@@H](OC(=O)c1c[nH]c3ccccc13)C2", "note": "[Compound E, Indol-3-yl carboxylic acid endo-8-methyl-8-aza-bicyclo[3,2,1]-oct-3-yl ester]", "values": [{"measurement": "concentration producing maximal response", "value": "10-^8 M"}]}
